Test results: PubChem BioAssay AID493014 (National Center for Advancing Translational Sciences (NCATS), 2011)
The other results are listed elsewhere or left out. Further columns of the screen follow, without active or inactive calls. Compounds called inactive in the main read-out are mostly missing here. The note in brackets gives the kind of curve behind each potency; many fits are weak.

Experiment: qHTS Assay to Find Inhibitors of Chronic Active B-Cell Receptor Signaling
Details: ABC-DLBCL IkBa-CBG/CBR reporter, luminescence ratio (green luciferase fused to IkBa over red control in TMD8 lymphoma cells), 4 h
In short: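 Cell line TMD8 (human ABC DLBCL), stably expressing tet-inducible CBG68-IkBa fusion and CBR; IMDM/0.5% FBS; cpd up to 46 uM; dox induction, 4 h, 37C/5% CO2; dual luminescence; green/red ratio; MG132 control.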

[1] = measured here: CBR red luminescence, cell number
[2] = measured here: IkBa-CBG green luminescence

Row | Compound | AC50 [1] | AC50 [2]
1 | CCOC(=O)c1ccccc1NC(=O)CSc1nc2[nH]ncc2c(=O)[nH]1 | 25.9 µM [falling, single point] | –
2 | Cc1ccc(Nc2nc(-c3cccnc3)cs2)cc1Cl | 5.62 µM [rising, partial curve, poor fit] | –
3 | O=S(=O)(c1ccc(Cl)cc1)c1cnc2ccccc2n1 | 10 µM [falling, partial curve, poor fit] | –
4 | COc1cccc(NC(=O)CN(c2cccc(C(F)(F)F)c2)S(C)(=O)=O)c1 | 7.94 µM [falling, partial curve] | –
5 | C[C@@H]1CC=C[C@H]2[C@H]1C(=O)N(Cc1ccccc1)[C@H]2c1ccc(-c2ccoc2)cc1F | 35.5 µM [falling, single point] | –
6 | O=C(/C=C/c1ccco1)NC(=S)Nc1cccc(C(=O)O)c1 | 8.91 µM [falling, partial curve] | –
7 | NC(=O)c1sc2nc(-c3cccnc3)ccc2c1N | 0.708 µM [rising, partial curve, poor fit] | –
8 | CN(C)c1ccc(-c2nn3c(-c4cccnc4)nnc3s2)cc1 | 14.6 µM [rising, partial curve, poor fit] | –
9 | O=C(O)c1ccc(CNc2ccccc2C(=O)O)cc1 | 16.4 µM [falling, single point] | –
10 | N#C/C(=C\c1ccncc1)C(=O)Nc1ccc(C(=O)O)cc1 | 7.08 µM [falling, partial curve] | –
11 | Cc1nc(N2N=C3/C(=C/c4ccc(F)cc4)CCCC3C2c2ccc(F)cc2)sc1C(=O)N(C)C (configuration not stated) | 29.1 µM [falling, single point] | –
12 | O=C(CCc1ccc(S(=O)(=O)N2CCOCC2)cc1)OCc1nc2ccccc2s1 | 3.98 µM [rising, partial curve, poor fit] | –
13 | CCc1c(C)nc(SCCOc2ccc(OC)cc2)[nH]c1=O | – | 31.6 µM [falling, partial curve, poor fit]
14 | COc1ccc(NC(=O)CCN2CCCCC2)cc1 | 4.61 µM [falling, full curve, poor fit] | –
15 | Cn1c(=O)c(C(=O)Nc2ccccc2S(N)(=O)=O)c(O)c2ccccc21 | 0.794 µM [falling, partial curve] | –
16 | N#CC1=C(N)OC2=C(CC/C2=C\c2ccccc2)C1c1ccccc1 (configuration not stated) | 11.2 µM [falling, partial curve] | –
17 | Cc1occc1C(=O)NNC(=S)Nc1ccccc1C(F)(F)F | 25.9 µM [falling, partial curve] | –
18 | O=C(Nc1cccc(F)c1)/C(=C/c1ccco1)NC(=O)c1ccco1 | 35.5 µM [falling, single point] | –
19 | COc1ccc(C2C(C(C)=O)=C(O)C(=O)N2c2nccs2)c(OC)c1 (configuration not stated) | 15.8 µM [rising, partial curve, poor fit] | –
20 | COC(=O)C1=CN(C2CC2)C=C(C(=O)OC)C1c1ccccc1OC | 7.08 µM [falling, full curve, poor fit] | –
21 | Clc1ccccc1-c1nnc2sc(-c3ccncc3)nn12 | 5.8 µM [falling, partial curve] | –

Row | Compound | AC50 [1] | AC50 [2]
22 | Cc1ccc2cc(CN(CC3CCCO3)C(=S)Nc3ccccc3)c(=O)[nH]c2c1 (configuration not stated) | 14.1 µM [falling, partial curve, poor fit] | 17.8 µM [rising, partial curve, poor fit]
23 | COc1ccc2oc(=O)c(C(=O)Nc3ccccc3C)cc2c1 | 8.91 µM [falling, partial curve] | –
24 | Cc1ccc(S(=O)(=O)Nc2nc3ccccc3nc2NCc2ccco2)cc1 | 3.66 µM [falling, partial curve] | –
25 | Cc1[nH]c2ccccc2c1SCc1nnc(SCc2ccc(Cl)cc2)n1C | 35.5 µM [falling, single point] | –
26 | O=C(OCC(=O)N1CCN(C(=O)c2ccco2)CC1)c1cc(-c2cccc(Br)c2)nc2ccccc12 | 32.6 µM [falling, single point] | –
27 | CCNC(=O)N1c2ccc(OCC)cc2C(C)=CC1(C)C | 17.8 µM [falling, single point] | –
28 | Cc1ccc(C2NC(=O)NC3=C2CCc2ccccc23)cc1 (configuration not stated) | 0.891 µM [rising, full curve] | –
29 | O=C(Nc1cc(Cl)cc(Cl)c1)C1CC(=O)N(C2CCCC2)C1 (configuration not stated) | 25.9 µM [falling, single point] | –
30 | COc1ccccc1C(=O)Nc1ccc2c(c1)nc(CN1CCCCC1)n2C | 35.5 µM [falling, single point] | –
31 | C=CC[C@@H](CC(=O)N[C@H](CO)Cc1ccccc1)C(=O)N[C@@H](COC(=O)[C@@H](CC=C)Cc1ccc(F)cc1)Cc1c[nH]c2ccccc12 | 29.1 µM [falling, single point] | –
32 | Cc1cccc(CC(=O)N2CCC(N3CCC(C(=O)N4CCOCC4)CC3)CC2)c1 | 7.94 µM [rising, partial curve, poor fit] | –
33 | O=S(=O)(CCOc1ccccc1)c1nc2ccccc2[nH]1 | 10.3 µM [falling, partial curve] | –
34 | O=C(NCCCNc1ccc(C(F)(F)F)cc1[N+](=O)[O-])c1ccc(F)cc1 | 32.6 µM [rising, single point] | –
35 | O=C(COc1ccc(Br)cc1Cl)N1CCN(c2ncccn2)CC1 | 6.51 µM [rising, partial curve] | –
36 | O=C(Cc1csc(NC(=O)Nc2cccc(Cl)c2)n1)NCc1ccccn1 | 6.51 µM [rising, single point] | –
37 | OC(CNC1Cc2ccccc2C1)COc1ccc(Cl)cc1 (configuration not stated) | 10 µM [rising, partial curve] | –
38 | O=C(O)/C=C/C(=O)NNC(=O)c1ccc(Cl)cc1Cl | 3.98 µM [falling, full curve, poor fit] | –
39 | COc1ccc(N2CC(NC(=O)N3CCN(C(=O)c4ccco4)CC3)CC2=O)cc1OC (configuration not stated) | 18.4 µM [falling, partial curve, poor fit] | –
40 | CCCC/C(O)=C/c1nc2ccccc2[nH]c1=O | – | 18.4 µM [falling, single point]
41 | Cc1cc(C)nc(NC(=O)c2ccc(OC(C)C)cc2)n1 | 23.1 µM [falling, partial curve, poor fit] | –

In another format: nine of the compounds above
Row	Compound	AC50 [1]	AC50 [2]
28	Cc1ccc(C2NC(=O)NC3=C2CCc2ccccc23)cc1 (configuration not stated)	0.891 µM [rising, full curve]	–
29	O=C(Nc1cc(Cl)cc(Cl)c1)C1CC(=O)N(C2CCCC2)C1 (configuration not stated)	25.9 µM [falling, single point]	–
31	C=CC[C@@H](CC(=O)N[C@H](CO)Cc1ccccc1)C(=O)N[C@@H](COC(=O)[C@@H](CC=C)Cc1ccc(F)cc1)Cc1c[nH]c2ccccc12	29.1 µM [falling, single point]	–
32	Cc1cccc(CC(=O)N2CCC(N3CCC(C(=O)N4CCOCC4)CC3)CC2)c1	7.94 µM [rising, partial curve, poor fit]	–
34	O=C(NCCCNc1ccc(C(F)(F)F)cc1[N+](=O)[O-])c1ccc(F)cc1	32.6 µM [rising, single point]	–
35	O=C(COc1ccc(Br)cc1Cl)N1CCN(c2ncccn2)CC1	6.51 µM [rising, partial curve]	–
37	OC(CNC1Cc2ccccc2C1)COc1ccc(Cl)cc1 (configuration not stated)	10 µM [rising, partial curve]	–
40	CCCC/C(O)=C/c1nc2ccccc2[nH]c1=O	–	18.4 µM [falling, single point]
41	Cc1cc(C)nc(NC(=O)c2ccc(OC(C)C)cc2)n1	23.1 µM [falling, partial curve, poor fit]	–
